This is an account of results in paper PMC5063806, “Data for peptide-binding assay with oriented immobilization of GRP78 in Biacore” (Data in Brief, 2016).

Amino acid sequences for entries named in this document (tags omitted). Residues count along the entry.
UniProt P11021, residues 19-654: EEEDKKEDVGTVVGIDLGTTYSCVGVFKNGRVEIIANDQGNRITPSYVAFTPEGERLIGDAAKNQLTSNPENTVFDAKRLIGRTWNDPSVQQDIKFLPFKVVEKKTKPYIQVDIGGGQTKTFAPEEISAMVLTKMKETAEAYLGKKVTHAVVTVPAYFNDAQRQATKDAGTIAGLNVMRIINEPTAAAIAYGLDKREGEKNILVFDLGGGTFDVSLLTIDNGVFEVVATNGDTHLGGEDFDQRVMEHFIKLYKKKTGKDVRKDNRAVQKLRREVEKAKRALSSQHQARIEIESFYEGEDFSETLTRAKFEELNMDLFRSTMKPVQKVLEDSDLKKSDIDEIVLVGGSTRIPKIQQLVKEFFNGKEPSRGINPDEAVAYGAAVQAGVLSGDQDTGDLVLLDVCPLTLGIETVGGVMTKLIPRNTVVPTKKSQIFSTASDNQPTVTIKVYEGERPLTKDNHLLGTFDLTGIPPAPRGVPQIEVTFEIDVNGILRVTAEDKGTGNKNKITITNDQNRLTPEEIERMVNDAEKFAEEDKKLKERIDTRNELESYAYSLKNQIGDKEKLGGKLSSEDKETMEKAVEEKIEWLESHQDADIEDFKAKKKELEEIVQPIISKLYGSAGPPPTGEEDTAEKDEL

Results are given in words; binding and its absence hold for the method and conditions named. Some results given as binding are weak or reduced against the parent protein; the word gives no strength.

The target in the experiment is T1, human GRP78, N-His-tagged (human, UniProt P11021 19-654).
T1 construct: GRP78, human; 6-His tag at the N-terminus; also called N-His-tagged GRP78; not shown: His6, N-terminal, kept
Description: SPR; modified protocol, Biacore X: N-His-tagged GRP78 covalently immobilised (EDC/NHS, Ni2+ orientation, about 5000~6000 RU) on chip NTA; running buffer HBS-P pH 7.4 with 1 mM glycine; L-peptide 6.25-100 uM; both peptides at 50 uM in Fig. 3; fit with BIAevaluation 4.1, default settings; both purified. A general note: In SPR one partner is held on a chip, and binding of the other changes the refractive index at the surface.

B1: WIFPWIQL (W) peptide (peptide)
peptide: WIFPWIQL
For the molecule B1, the binding entry is on record as “binds”.
